## Drug screen on melanoma cell lines: apoptosis marker

Drug key:
vorinostat: O=C(CCCCCCC(=O)Nc1ccccc1)NO at 0.4 µM
dasatinib: Cc1nc(Nc2ncc(C(=O)Nc3c(C)cccc3Cl)s2)cc(N2CCN(CCO)CC2)n1 at 0.02 µM
NVP-TAE684: COc1cc(N2CCC(N3CCN(C)CC3)CC2)ccc1Nc1ncc(Cl)c(Nc2ccccc2S(=O)(=O)C(C)C)n1 at 0.4 µM
sorafenib: CNC(=O)c1cc(Oc2ccc(NC(=O)Nc3ccc(Cl)c(C(F)(F)F)c3)cc2)ccn1 at 2 µM

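The test systems are human melanoma cell lines, treated with a pair of drugs for 72 h and then stained and imaged. Values are the share of nuclei positive for cleaved PARP as a percentage of the same share in the DMSO control: 100 is the control level, higher means more apoptosis. Every drug was used at one fixed concentration, the higher of two screened. The file gives one value for each pair and line, without errors, so small differences may be noise. The marker varies much from line to line, for technical or biological reasons.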
Only some of the drugs and lines screened are listed, without regard to their results.
A dash means that no value is listed here.

Cell line | dasatinib + vorinostat | sorafenib + vorinostat | sorafenib + NVP-TAE684 | dasatinib + sorafenib | NVP-TAE684 + vorinostat | dasatinib + NVP-TAE684
WM451Lu | 416 | 35.9 | 82.2 | 160 | 54.9 | 428
WM115 | 347 | 60.2 | 95.3 | 599 | 161 | 177
COLO 800 | 197 | 110 | 99.5 | 105 | 404 | 192
SK-MEL-28 | 138 | 163 | 72.0 | 147 | 414 | 533
SK-MEL-2 | 280 | 158 | 138 | 172 | 196 | 226
RVH-421 | 88.1 | 77.5 | 233 | 274 | 123 | 642
A2058 | 230 | 22.0 | 188 | 296 | 145 | 1420
MZ2-MEL | 181 | 24.5 | 96.0 | 121 | 110 | 204
UACC-257 | 57.6 | 42.4 | 23.3 | 207 | 57.3 | 37.3
A375 | - | - | 98.2 | 74.0 | 120 | 147
SK-MEL-5 | 415 | 254 | 142 | 59.4 | 180 | 163
COLO 792 | 655 | 28.8 | 55.2 | 109 | 218 | 562
WM3619 | 168 | 107 | 109 | 240 | 149 | 206
G-361 | 159 | 118 | 223 | 56.3 | 212 | 156
RPMI-7951 | 444 | 83.3 | 105 | 782 | 262 | 256
WM1716 | 672 | 38.3 | 122 | 235 | 123 | 7520
501mel | - | - | 302 | - | 161 | 298
COLO 829 | 85.0 | 95.5 | 108 | 150 | 92.1 | 155
IST-MEL1 | 84.0 | 117 | 223 | 145 | 51.1 | 114
WM3526 | 260 | 66.1 | 179 | 41.6 | 229 | 86.1
IPC-298 | 39.4 | 55.0 | 115 | 128 | 49.5 | 176
MEL-HO | 89.4 | 138 | 113 | 339 | 51.9 | 253
SK-MEL-30 | 226 | 338 | 64.4 | 187 | 91.9 | 69.4
UACC-62 | 138 | 130 | 259 | 81.2 | 200 | 914
MeWo | 82.9 | 32.1 | 108 | 79.7 | 95.1 | 61.3
C32 | 1040 | 78.0 | 101 | 40.9 | 104 | 307
LB2518-MEL | 138 | 41.3 | 83.8 | 58.5 | 82.6 | 182
WM1745 | 264 | 88.3 | - | 385 | 190 | 1040
A101D | 86.2 | 116 | 39.3 | 188 | 57.1 | 323
LOX IMVI | 413 | 368 | 104 | 243 | 144 | 310

Values as published with doi:10.1371/journal.pone.0140310, rounded.